The source of these data is PMC11634737.

Assay [1] deals with T1, Flag-PSF (polypyrimidine tract-binding protein-associated splicing factor) (UniProt P23246).
T1 sequence: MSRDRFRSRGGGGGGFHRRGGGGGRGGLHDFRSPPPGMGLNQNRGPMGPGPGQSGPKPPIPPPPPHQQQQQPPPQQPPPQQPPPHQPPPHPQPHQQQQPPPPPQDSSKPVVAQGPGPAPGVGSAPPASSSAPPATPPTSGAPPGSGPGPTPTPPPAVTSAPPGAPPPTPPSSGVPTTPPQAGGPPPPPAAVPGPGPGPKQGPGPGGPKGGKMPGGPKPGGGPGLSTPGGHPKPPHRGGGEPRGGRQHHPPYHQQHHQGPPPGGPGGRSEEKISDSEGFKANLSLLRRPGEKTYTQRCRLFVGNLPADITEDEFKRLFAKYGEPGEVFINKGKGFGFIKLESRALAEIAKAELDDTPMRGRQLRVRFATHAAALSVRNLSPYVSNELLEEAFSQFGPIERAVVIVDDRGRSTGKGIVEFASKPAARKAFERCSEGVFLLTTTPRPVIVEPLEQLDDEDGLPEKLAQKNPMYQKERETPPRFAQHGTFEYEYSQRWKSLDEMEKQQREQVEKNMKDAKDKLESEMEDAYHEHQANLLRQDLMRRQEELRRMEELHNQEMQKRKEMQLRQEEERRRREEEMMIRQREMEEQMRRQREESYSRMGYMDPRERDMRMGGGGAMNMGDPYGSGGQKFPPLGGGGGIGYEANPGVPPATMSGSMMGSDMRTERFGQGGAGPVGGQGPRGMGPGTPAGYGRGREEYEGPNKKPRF
The assay is described as follows: co-IP; 293T cells transfected with Flag-PSF and HA-G3BP2, harvested after 24 h; immunoprecipitation with anti-Flag or anti-HA antibodies, protein G agarose, western blot. (In general: In western blotting, separated proteins are transferred to a membrane and probed.)

Substrate in assay [2]: T2, PSF, endogenous in SH-SY5Y cells (human (endogenous in SH-SY5Y)) (UniProt P23246)
T2 sequence: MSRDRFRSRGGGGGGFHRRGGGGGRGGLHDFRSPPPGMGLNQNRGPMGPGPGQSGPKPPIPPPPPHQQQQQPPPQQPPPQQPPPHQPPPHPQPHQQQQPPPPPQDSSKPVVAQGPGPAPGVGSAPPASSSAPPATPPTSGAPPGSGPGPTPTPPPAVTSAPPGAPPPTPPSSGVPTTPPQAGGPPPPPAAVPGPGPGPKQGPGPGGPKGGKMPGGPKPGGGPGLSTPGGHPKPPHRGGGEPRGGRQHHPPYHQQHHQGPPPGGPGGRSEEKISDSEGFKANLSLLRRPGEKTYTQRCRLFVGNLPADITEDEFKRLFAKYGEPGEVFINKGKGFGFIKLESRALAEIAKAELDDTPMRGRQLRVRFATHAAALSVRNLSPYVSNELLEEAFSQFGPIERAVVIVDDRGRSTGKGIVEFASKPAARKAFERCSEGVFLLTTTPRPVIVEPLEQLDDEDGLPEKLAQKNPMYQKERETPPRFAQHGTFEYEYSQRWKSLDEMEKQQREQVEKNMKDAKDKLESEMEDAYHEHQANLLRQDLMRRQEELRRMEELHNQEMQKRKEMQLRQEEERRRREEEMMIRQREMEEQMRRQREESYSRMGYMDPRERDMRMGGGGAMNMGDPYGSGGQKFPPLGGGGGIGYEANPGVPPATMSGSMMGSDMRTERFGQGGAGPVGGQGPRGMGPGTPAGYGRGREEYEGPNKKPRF
The assay is described as follows: co-IP; endogenous proteins, cytoplasmic fraction of SH-SY5Y cells (hypotonic solution, 1% NP40), untreated or treated with 100 uM sodium arsenite or 1 mM H2O2 for 1 h; immunoprecipitation with anti-G3BP2, anti-PSF or nonspecific IgG, western blot.

Substrate in assay [3]: T2, 
Kind of assay: co-IP; endogenous proteins, nuclear fraction of SH-SY5Y cells (RIPA buffer), untreated or treated with 100 uM sodium arsenite or 1 mM H2O2 for 1 h; immunoprecipitation with anti-G3BP2, anti-PSF or nonspecific IgG, western blot.

The target of assay [4] is T3, purified PSF (UniProt P23246).
T3 sequence: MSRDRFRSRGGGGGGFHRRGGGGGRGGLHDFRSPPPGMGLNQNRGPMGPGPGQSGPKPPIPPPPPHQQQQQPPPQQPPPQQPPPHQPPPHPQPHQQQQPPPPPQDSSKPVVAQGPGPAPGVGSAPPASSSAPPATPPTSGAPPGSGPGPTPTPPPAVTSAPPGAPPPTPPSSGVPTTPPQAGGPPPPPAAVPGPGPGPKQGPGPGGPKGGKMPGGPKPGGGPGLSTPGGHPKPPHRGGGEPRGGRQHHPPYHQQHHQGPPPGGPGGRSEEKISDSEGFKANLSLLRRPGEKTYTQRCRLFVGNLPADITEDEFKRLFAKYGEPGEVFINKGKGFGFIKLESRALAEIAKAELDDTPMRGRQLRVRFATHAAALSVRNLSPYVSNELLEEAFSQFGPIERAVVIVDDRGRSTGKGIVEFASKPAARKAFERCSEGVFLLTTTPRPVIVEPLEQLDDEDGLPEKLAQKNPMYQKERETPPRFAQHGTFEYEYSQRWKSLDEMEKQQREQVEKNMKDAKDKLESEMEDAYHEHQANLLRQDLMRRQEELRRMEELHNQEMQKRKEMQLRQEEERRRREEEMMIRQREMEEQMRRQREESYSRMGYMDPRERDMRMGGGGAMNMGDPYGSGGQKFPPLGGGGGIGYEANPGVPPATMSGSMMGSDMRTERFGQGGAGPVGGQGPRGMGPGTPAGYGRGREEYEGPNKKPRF
Kind of assay: in vitro binding assay; purified G3BP2 and purified PSF; format not told in the text shown (Figure S2c); both purified.

Results are given in words; binding and its absence hold for the method and conditions named. For some of these results: In cells and extracts the contact can be indirect. Some results given as binding are weak or reduced against the parent protein; the word gives no strength. For some of these results: Tags and fused reporters may be left off the sequences shown.

B1: HA-G3BP2 (RasGAP-associated endoribonuclease 2) (protein, UniProt Q9UN86 1-482)
chain: MVMEKPSPLLVGREFVRQYYTLLNKAPEYLHRFYGRNSSYVHGGVDASGKPQEAVYGQNDIHHKVLSLNFSECHTKIRHVDAHATLSDGVVVQVMGLLSNSGQPERKFMQTFVLAPEGSVPNKFYVHNDMFRYEDEVFGDSEPELDEESEDEVEEEQEERQPSPEPVQENANSGYYEAHPVTNGIEEPLEESSHEPEPEPESETKTEELKPQVEEKNLEELEEKSTTPPPAEPVSLPQEPPKAFSWASVTSKNLPPSGTVSSSGIPPHVKAPVSQPRVEAKPEVQSQPPRVREQRPRERPGFPPRGPRPGRGDMEQNDSDNRRIIRYPDSHQLFVGNLPHDIDENELKEFFMSFGNVVELRINTKGVGGKLPNFGFVVFDDSEPVQRILIAKPIMFRGEVRLNVEEKKTRAARERETRGGGDDRRDIRRNDRGPGGPRGIVGGGMMRDRDGRGPPPRGGMAQKLGSGRGTGQMEGRFTGQRR
B1: in assay [1], the binding result is “binds”.

B2: G3BP2, endogenous in SH-SY5Y cells (protein, UniProt Q9UN86 1-482)
chain: MVMEKPSPLLVGREFVRQYYTLLNKAPEYLHRFYGRNSSYVHGGVDASGKPQEAVYGQNDIHHKVLSLNFSECHTKIRHVDAHATLSDGVVVQVMGLLSNSGQPERKFMQTFVLAPEGSVPNKFYVHNDMFRYEDEVFGDSEPELDEESEDEVEEEQEERQPSPEPVQENANSGYYEAHPVTNGIEEPLEESSHEPEPEPESETKTEELKPQVEEKNLEELEEKSTTPPPAEPVSLPQEPPKAFSWASVTSKNLPPSGTVSSSGIPPHVKAPVSQPRVEAKPEVQSQPPRVREQRPRERPGFPPRGPRPGRGDMEQNDSDNRRIIRYPDSHQLFVGNLPHDIDENELKEFFMSFGNVVELRINTKGVGGKLPNFGFVVFDDSEPVQRILIAKPIMFRGEVRLNVEEKKTRAARERETRGGGDDRRDIRRNDRGPGGPRGIVGGGMMRDRDGRGPPPRGGMAQKLGSGRGTGQMEGRFTGQRR
For B2, the binding entry in assay [2] and in assay [3] was “binds” throughout.

B3: purified G3BP2 (protein, UniProt Q9UN86 1-482)
chain: MVMEKPSPLLVGREFVRQYYTLLNKAPEYLHRFYGRNSSYVHGGVDASGKPQEAVYGQNDIHHKVLSLNFSECHTKIRHVDAHATLSDGVVVQVMGLLSNSGQPERKFMQTFVLAPEGSVPNKFYVHNDMFRYEDEVFGDSEPELDEESEDEVEEEQEERQPSPEPVQENANSGYYEAHPVTNGIEEPLEESSHEPEPEPESETKTEELKPQVEEKNLEELEEKSTTPPPAEPVSLPQEPPKAFSWASVTSKNLPPSGTVSSSGIPPHVKAPVSQPRVEAKPEVQSQPPRVREQRPRERPGFPPRGPRPGRGDMEQNDSDNRRIIRYPDSHQLFVGNLPHDIDENELKEFFMSFGNVVELRINTKGVGGKLPNFGFVVFDDSEPVQRILIAKPIMFRGEVRLNVEEKKTRAARERETRGGGDDRRDIRRNDRGPGGPRGIVGGGMMRDRDGRGPPPRGGMAQKLGSGRGTGQMEGRFTGQRR
Consider B3, for which the binding result in assay [4] is given as “binds”.
